Source: patent US11596167B2, “Formulas comprising optimised amino acid profiles” (N.V. Nutricia, priority 2014, dated 2023)

Test system: term infants
Assay: Indicator amino acid oxidation (IAAO) method: essential amino acid requirement (breakpoint) in formula-fed infants
Assay type: in vivo, human
Conditions: for Recommended dietary intake mg/100 mL: breakpoint divided by volume intake 150 mL·kg^−1·d^−1, times 100, mg amino acid per 100 mL infant formula; for Recommended dietary intake range g/100 g protein: calculated for protein intake level 0.9-1.4 g/100 mL infant formula; for Recommended dietary intake (IAAO breakpoint) mg kg^−1 day^−1 / Breakpoint (requirement) estimated by IAAO: term infants, biphasic linear regression crossover model; for Recommended dietary intake (IAAO breakpoint) mg kg^−1 day^−1: postnatal age <28 days, amino acid based formula, breakpoint equals recommended intake; for Requirement expressed per 100 mL formula, range: with a 20% variation; for Recommended dietary intake converted into g/100 g protein: protein intake level 0.9-1.4 g/100 mL infant formula; for Breakpoint (requirement) estimated by IAAO: F13CO2 versus test amino acid intake; for Recommended dietary intake: of infant formula, from breakpoint and 150 mL·kg^−1·d^−1 volume intake

## CC(C)[C@H](N)C(=O)O [Valine, valine]
  Recommended dietary intake mg/100 mL: 73 mg/100 mL
  Recommended dietary intake range g/100 g protein: 5.2-8.1 g/100 g protein
  Recommended dietary intake (IAAO breakpoint) mg kg^−1 day^−1: 110 mg/kg/day

## CSCC[C@H](N)C(=O)O [Methionine, methionine]
  Recommended dietary intake mg/100 mL: 25 mg/100 mL
  Recommended dietary intake range g/100 g protein: 1.8-2.8 g/100 g protein
  Recommended dietary intake (IAAO breakpoint) mg kg^−1 day^−1: 38 mg/kg/day

## N[C@@H](Cc1ccccc1)C(=O)O [Phenylalanine, phenylalanine]
  Recommended dietary intake mg/100 mL: 39 mg/100 mL
  Recommended dietary intake range g/100 g protein: 2.8-4.3 g/100 g protein
  Requirement expressed per 100 mL formula, range: 39-46 mg/100 mL
  Recommended dietary intake converted into g/100 g protein: 2.8-4.3 g/100 g protein
  Recommended dietary intake (IAAO breakpoint) mg kg^−1 day^−1: 58 mg/kg/day
  Breakpoint (requirement) estimated by IAAO: 58 mg/kg/day
Range with 20% variation (product-allowed variation)
  Requirement of infants with a 20% variation permitted: 58-70 mg/kg per day

## CC[C@H](C)[C@H](N)C(=O)O [Isoleucine, isoleucine]
  Recommended dietary intake mg/100 mL: 70 mg/100 mL
  Recommended dietary intake range g/100 g protein: 5.0-7.8 g/100 g protein
  Recommended dietary intake (IAAO breakpoint) mg kg^−1 day^−1: 105 mg/kg/day

## N[C@@H](Cc1c[nH]c2ccccc12)C(=O)O [Tryptophan, tryptophan]
  Recommended dietary intake mg/100 mL: 10 mg/100 mL
  Recommended dietary intake range g/100 g protein: 0.7-1.1 g/100 g protein
  Requirement expressed per 100 mL formula, range: 10-12 mg/100 mL
  Recommended dietary intake: 10 mg/100 mL
  Recommended dietary intake converted into g/100 g protein: 0.7-1.1 g/100 g protein
  Recommended dietary intake (IAAO breakpoint) mg kg^−1 day^−1: 15 mg/kg/day
  Breakpoint (requirement) estimated by IAAO: 15 mg/kg/day

## C[C@@H](O)[C@H](N)C(=O)O [Threonine, threonine]
  Recommended dietary intake mg/100 mL: 45 mg/100 mL
  Recommended dietary intake range g/100 g protein: 3.2-5.0 g/100 g protein
  Requirement expressed per 100 mL formula, range: 45-54 mg/100 mL
  Recommended dietary intake: 45 mg/100 mL
  Recommended dietary intake converted into g/100 g protein: 3.2-5.0 g/100 g protein
  Recommended dietary intake (IAAO breakpoint) mg kg^−1 day^−1: 68 mg/kg/day
  Breakpoint (requirement) estimated by IAAO: 68 mg/kg/day

## CC(C)C[C@H](N)C(=O)O [Leucine, leucine]
  Recommended dietary intake mg/100 mL: 93 mg/100 mL
  Recommended dietary intake range g/100 g protein: 6.6-10.4 g/100 g protein
  Recommended dietary intake (IAAO breakpoint) mg kg^−1 day^−1: 140 mg/kg/day
